Experimental data reported in patent publication US20060281118A1 (UNIVERSITY OF MEDICINE AND DENTISTRY OF NEW JERSEY, published 2006).
Results are given in words; binding and its absence hold for the method and conditions named. For part of these data: In cells and extracts the contact can be indirect. Some entries that bind do so weakly or less than the wild type. Tags and fused reporters may be left off the sequences shown.

Columns and labels:
Rad4-HA (yeast) [1] = target: T1, Rad4-HA (yeast) (UniProt P14736); test: gel filtration on Sephacryl S-200, immunoblot (FIGS. 3A-C, lane 2)
T1 sequence: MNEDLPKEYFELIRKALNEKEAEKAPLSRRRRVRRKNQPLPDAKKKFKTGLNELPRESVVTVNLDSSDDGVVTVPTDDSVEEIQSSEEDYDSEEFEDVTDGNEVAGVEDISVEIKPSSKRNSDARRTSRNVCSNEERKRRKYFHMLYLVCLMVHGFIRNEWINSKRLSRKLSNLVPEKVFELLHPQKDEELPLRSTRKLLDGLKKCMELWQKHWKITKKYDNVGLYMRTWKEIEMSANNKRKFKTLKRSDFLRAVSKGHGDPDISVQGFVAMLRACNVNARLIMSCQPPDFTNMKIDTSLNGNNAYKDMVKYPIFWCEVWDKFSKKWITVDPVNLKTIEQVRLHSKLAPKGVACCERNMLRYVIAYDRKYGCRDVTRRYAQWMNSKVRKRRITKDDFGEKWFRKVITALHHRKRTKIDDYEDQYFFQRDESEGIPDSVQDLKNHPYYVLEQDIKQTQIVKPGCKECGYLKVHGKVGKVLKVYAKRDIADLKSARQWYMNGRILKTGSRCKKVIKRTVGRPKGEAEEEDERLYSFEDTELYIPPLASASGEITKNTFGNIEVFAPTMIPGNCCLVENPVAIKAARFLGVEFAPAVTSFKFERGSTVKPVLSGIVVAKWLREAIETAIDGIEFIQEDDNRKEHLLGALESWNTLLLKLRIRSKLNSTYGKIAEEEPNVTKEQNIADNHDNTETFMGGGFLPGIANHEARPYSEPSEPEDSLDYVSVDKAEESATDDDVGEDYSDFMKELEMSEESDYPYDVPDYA

Rad4-HA (yeast) [2] = target: T1, Rad4-HA (yeast); test: GST pull-down from 35S-labelled yeast extracts, SDS-PAGE and fluorography (FIG. 1A, lane 2)
Rad4-HA (yeast) [3] = target: T1, Rad4-HA (yeast); test: Mono-Q then Mono-S chromatography, immunoblot (FIGS. 3A-3C, lanes 15-18)
Rad4-HA (yeast) [4] = target: T1, Rad4-HA (yeast); test: column fractionation, glutathione-Sepharose capture of fractions, immunoblot (FIG. 3)
Rad4-HA (yeast) [5] = target: T1, Rad4-HA (yeast); test: GST pull-down on glutathione-Sepharose from 35S-labelled yeast extracts, fluorography (FIG. 1A, lane 2)
Rad4-HA (yeast) [6] = target: T1, Rad4-HA (yeast); test: co-purification (restated from Example 1)
[7] = target: T2, Irt1 fused to the activation domain of Gal4 (yeast) (UniProt P39955); test: yeast two-hybrid screen
T2 sequence (looked up): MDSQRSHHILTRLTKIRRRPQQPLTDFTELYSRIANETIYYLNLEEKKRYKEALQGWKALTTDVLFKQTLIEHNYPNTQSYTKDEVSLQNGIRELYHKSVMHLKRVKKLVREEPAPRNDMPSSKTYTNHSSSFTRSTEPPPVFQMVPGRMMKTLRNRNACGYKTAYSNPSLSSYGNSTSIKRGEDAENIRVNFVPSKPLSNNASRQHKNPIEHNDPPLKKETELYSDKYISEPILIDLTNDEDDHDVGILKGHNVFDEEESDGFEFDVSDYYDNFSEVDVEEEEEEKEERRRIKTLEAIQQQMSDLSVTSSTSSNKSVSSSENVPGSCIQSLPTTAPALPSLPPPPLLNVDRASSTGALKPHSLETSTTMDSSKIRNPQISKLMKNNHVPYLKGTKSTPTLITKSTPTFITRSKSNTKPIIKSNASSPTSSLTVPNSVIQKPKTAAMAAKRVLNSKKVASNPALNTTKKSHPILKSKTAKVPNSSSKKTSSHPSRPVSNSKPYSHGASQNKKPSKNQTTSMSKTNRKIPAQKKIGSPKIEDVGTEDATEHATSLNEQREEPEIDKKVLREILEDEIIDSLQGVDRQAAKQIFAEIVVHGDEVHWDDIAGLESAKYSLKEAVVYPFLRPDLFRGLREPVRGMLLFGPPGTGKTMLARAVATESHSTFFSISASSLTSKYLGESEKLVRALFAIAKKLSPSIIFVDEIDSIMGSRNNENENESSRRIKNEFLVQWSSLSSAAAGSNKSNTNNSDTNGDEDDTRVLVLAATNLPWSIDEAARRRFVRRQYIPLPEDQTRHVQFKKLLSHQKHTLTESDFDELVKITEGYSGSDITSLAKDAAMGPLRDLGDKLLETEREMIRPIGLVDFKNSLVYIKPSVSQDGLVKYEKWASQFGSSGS

[8] = target: T2, Irt1 fused to the activation domain of Gal4 (yeast); test: yeast two-hybrid, β-galactosidase reporter (FIG. 12)
[9] = target: T2, Irt1 fused to the activation domain of Gal4 (yeast); test: yeast two-hybrid

Measured: binding

B1: GST-Rad23 (protein, Saccharomyces cerevisiae, UniProt P32628 1-398, looked up, not shown: a dimerising Fc or GST)
chain: MVSLTFKNFKKEKVPLDLEPSNTILETKTKLAQSISCEESQIKLIYSGKVLQDSKTVSECGLKDGDQVVFMVSQKKSTKTKVTEPPIAPESATTPGRENSTEASPSTDASAAPAATAPEGSQPQEEQTATTERTESASTPGFVVGTERNETIERIMEMGYQREEVERALRAAFNNPDRAVEYLLMGIPENLRQPEPQQQTAAAAEQPSTAATTAEQPAEDDLFAQAAQGGNASSGALGTTGGATDAAQGGPPGSIGLTVEDLLSLRQVVSGNPEALAPLLENISARYPQLREHIMANPEVFVSMLLEAVGDNMQDVMEGADDMVEGEDIEVTGEAAAAGLGQGEGEGSFQVDYTPEDDQAISRLCELGFERDLVIQVYFACDKNEEAAANILFSDHAD
not listed: [7] | [8] | [9]
binds: all other assays above

B2: lexA-Rad23p (protein, Saccharomyces cerevisiae, UniProt P32628 1-398, looked up, not shown: large carriers)
chain: B1 chain
binds: [7] | [8] | [9]
